# Several values for one entry are separate records, joined by “and”; a condition that tells them apart may be missing. Identical values can stand only once. Hit rate of the full screen: of about 320,000 compounds, about 22,000 (6.9%) were called active. This list was built around the results that the source calls inconclusive (neither active nor inactive); the mix of calls is not that of the screen. Calls follow the shape of the dose curve; as a rule, active = well fitted inhibition curve with a large enough effect; inconclusive = small, poorly fitted or top-dose-only effect, or another doubt; inactive = no such curve, though single readings can be large or run the other way. A potency beside an inconclusive call is a rough fit, not a confirmed value.
# Test: Primary qHTS for delayed death inhibitors of the malarial parasite plastid, 96 hour incubation
# Conditions: P. falciparum luciferase reporter growth; series mostly up to 28.7 µM; activity change, negative = inhibition: at the top concentration
# Procedure, shortened: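 P. falciparum expressing integrated firefly luciferase grown in erythrocytes (2% hematocrit, 0.05% parasitemia final) with compounds for 96 hours at 37 C, 5% CO2. Growth inhibition read as loss of luminescence after adding luciferase detection reagent.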
# % is scaled to controls: 0 for no effect and ±100 for the full control effect; potency is read from the fitted curve at half-maximal effect.
Compound,Potency,"activity change, negative = inhibition"
CCN1C(=O)C2C(C1=O)N1C(c3ccccc3)C3C(=O)N(CC)C(=O)C3N1C2c1ccccc1 (centres undefined),"inconclusive: 11.7 µM [inhibitor, single point]",–
CCN(C1CCCCC1)S(=O)(=O)c1ccc(S(=O)(=O)NCc2ccncc2)cc1,"inconclusive: 10.4 µM [inhibitor, single point]",–
FC(F)(F)C12CC(c3ccccc3)=NCCN1CCN2 (centres undefined),"inconclusive: 10.4 µM [inhibitor, single point]",–
COc1ccc2c(c1OC)C(=O)N(c1cccc(C(F)(F)F)c1)C2,–,inactive: 36.7%
CC(=O)Oc1ccc(OC(C)=O)c2c1CC(C)=C(C)C2,active: 13.1 µM,–
COC(=O)c1c(F)c(F)c(N2CCOCC2)c(F)c1F,–,inactive: 0.521%
CCOc1cc(/C=C2/C(=N)N3C=CSC3=NC2=O)ccc1OCCCOc1ccccc1C,"inconclusive: 0.0657 µM [inhibitor, full curve, poor fit]",–
CC1CC(C)(C)NC(=S)S1 (centres undefined),"inconclusive: 4.15 µM [inhibitor, partial curve]",–
Fc1ccccc1Nc1nc2ccccc2n2nnnc12,–,inactive: -0.576%
CCn1nc(CC(C)C)cc1C(=O)N1CCCC(Nc2ccc(F)cc2)C1 (centres undefined),"inconclusive: 13.1 µM [inhibitor, single point]",–
NNC(=O)Cn1c(SCc2ccccc2)nc2ccccc21,"inconclusive: 5.86 µM [inhibitor, single point]",–
CCN(CCNC(=O)Nc1ccc(Cl)cc1)c1ccccc1,–,inactive: 189%
COc1ccc(CNC(=O)/C=C/c2ccc(S(=O)(=O)NCc3ccco3)cc2)cc1OC,"inconclusive: 14.7 µM [inhibitor, single point]",–
COc1ccc(N=C2NN=C(c3c(C)[nH]c4ccccc34)CS2)cc1,"inconclusive: 9.28 µM [inhibitor, partial curve]",–
CCCCc1cc(=O)oc2c(CN3CCN(C)CC3)c(O)ccc12,"inconclusive: 13.1 µM [inhibitor, single point]",–
CCOc1ccccc1NC(=O)NCc1ccc2c(c1)OCO2,"inconclusive: 2.33 µM [inhibitor, partial curve, poor fit]",–
COc1ccc(-c2cc(-c3ccccc3)c(C#N)c(S(C)(=O)=O)n2)cc1,"inconclusive: 2.94 µM [inhibitor, full curve, poor fit]",–
COc1ccc(-n2ncc3c(SCC(=O)N4CCN(c5ccccc5OC)CC4)ncnc32)cc1,–,inactive: -4.21%
O=C(COC(=O)c1cncc(Br)c1)NC1CCCCC1,–,inactive: 78.8%
CC(C)OCCCN(CC(O)c1ccccc1)CC(O)c1ccccc1 (centres undefined),"inconclusive: 4.15 µM [inhibitor, single point]",–
O=C(NCC1CCCN1S(=O)(=O)c1ccccc1)c1cccc(Cl)c1 (centres undefined),"inconclusive: 18.5 µM [inhibitor, single point]",–
CCS(=O)(=O)N1CCN(c2ccnc3cc(Cl)ccc23)CC1,active: 10.4 µM,–
CC1CC(C)CN(S(=O)(=O)c2ccc(NC(=O)C3CC(=O)N(Cc4ccccc4)C3)cc2)C1 (centres undefined),"inconclusive: 18.5 µM [inhibitor, single point]",–
O=C(C1CCCN(S(=O)(=O)c2cccc3nsnc23)C1)N1CCC2(CC1)OCCO2 (centres undefined),"inconclusive: 2.62 µM [inhibitor, full curve]",–
CN(Cc1ccccc1)Cc1nc2c(c(=O)n(C)c(=O)n2C)n1CCCc1ccccc1,active: 10.4 µM,–

Compound,Potency,"activity change, negative = inhibition"
Cc1ccccc1NC(=O)Cc1nnc(SCC(=O)c2ccc(Br)cc2)n1C,"inconclusive: 10.4 µM [inhibitor, single point]",–
O=C(CCl)Nc1cccc(S(=O)(=O)NC2=NCCC2)c1,active: 4.65 µM,–
COc1cccc(NC(=O)CN(C)C(=O)c2c(-c3ccccc3)noc2C)c1,–,inactive: -22.4%
CCOC(=O)c1cc(-c2ccccc2)nc2ccc(C)cc12,"inactive and inconclusive: 65.7 nM [inhibitor, full curve, poor fit]",–
CCN(C1CCS(=O)(=O)C1)S(=O)(=O)c1ccc2ccccc2c1 (centres undefined),–,inactive: 17.5%
Cc1sc(NC(=O)Cn2[nH]c(=O)c3ccccc3c2=O)nc1-c1ccccc1,active: 11.7 µM,–
C=CCOC(=O)/C(=C/c1cccnc1)NC(=O)c1ccccc1,–,inactive: 33.9%
CN1c2ccccc2C(C)(C)C12CC(c1ccc(S(=O)(=O)N3CCCCC3)cc1)=NO2 (centres undefined),–,inactive: -20.1%
COC(=O)C1C2C=CC3(CN(c4cccc(Cl)c4)C(=O)C13)O2 (centres undefined),"inconclusive: 2.62 µM [inhibitor, full curve, poor fit]",–
COC(=O)Cc1ccc(NC(=S)NCc2cccc(OC)c2)cc1,"inconclusive: 0.0928 µM [inhibitor, full curve, poor fit]",–
CCOc1ccc(-n2c(N)c(-c3nc4ccccc4n3C)c3nc4ccccc4nc32)cc1,active: 2.94 µM,–
CC(=O)Nc1cccc(-c2cn3ccccc3n2)c1,active: 13.1 µM,–
CCn1c2ccccc2c2cc(CN3CCN(Cc4cc(OC)ccc4O)CC3)ccc21,–,inactive: 52.7%
Cc1ccc(Cl)cc1N1CCN(C(=O)c2cc3c(=O)[nH]c4ccccc4c3n2C)CC1,active: 9.28 µM,–
COc1ccc(C2=NOC(C(=O)Nc3cccnc3)C2)cc1 (centres undefined),"inconclusive: 10.4 µM [inhibitor, single point]",–
COc1ccc(Cl)cc1Nc1nc(C)cc(C)c1C(N)=O,–,inactive: 9.8%
Cc1cccc(NC(=O)COc2coc(CN3CCc4ccccc4C3)cc2=O)c1,"inconclusive: 16.5 µM [inhibitor, partial curve, poor fit]",–
COc1ccc(C(=O)N2CCN(c3ccc(NC(=O)c4ccco4)cc3)CC2)cc1,–,inactive: 0.385%
CCOC(=O)c1ccccc1NC1CC(=O)N(c2ccccc2C)C1=O (centres undefined),"inconclusive: 18.5 µM [inhibitor, single point]",–
CCC(C)(C)NC(=O)C(c1cccn1C)N(Cc1ccc(C)cc1)C(=O)Cn1nnc2ccccc21 (centres undefined),–,inactive: -27.8%
Cc1onc(-c2c(F)cccc2Cl)c1C(=O)Nc1nccs1,–,inactive: -18%
Nc1ccccc1Nc1ccncc1[N+](=O)[O-],"inconclusive: 14.7 µM [inhibitor, partial curve, poor fit]",–
COc1cccc(N2CC(C(=O)Nc3nnc(SCCC4OCCO4)s3)CC2=O)c1 (centres undefined),active: 9.28 µM,–
CCN(CC)S(=O)(=O)c1ccc(C)c(NC(=O)CSc2nc3ccccc3[nH]2)c1,"inconclusive: 11.7 µM [inhibitor, partial curve, poor fit]",–
Cc1ccc2oc(=O)c(/C=C(\O)c3ccco3)nc2c1,"inconclusive: 18.5 µM [inhibitor, single point]",–

Compound,Potency,"activity change, negative = inhibition"
Cc1cnc(NC(=O)CSc2nnc(N)s2)s1,–,inactive: 9.01%
CC(=O)c1ccccc1NCC(=O)Nc1ccc(C)cc1,"inconclusive: 14.7 µM [inhibitor, partial curve, poor fit]",–
C#Cc1cccc(C(=O)N2CCCC(C(=O)c3ccc(OC)cc3C)C2)c1 (centres undefined),active: 13.1 µM,–
O=C(C1CCCN(S(=O)(=O)c2cccc3cccnc23)C1)N1CCN(c2ccccc2F)CC1 (centres undefined),active: 14.7 µM,–
CCOC(=O)c1c(C)[nH]c(C(=O)OCC(=O)N2CCN(S(=O)(=O)c3ccc(C)cc3C)CC2)c1C,active: 7.38 µM,–
Cc1cc(C(=O)NCc2cccs2)ccc1[N+](=O)[O-],–,inactive: -5.11%
CCCCSCCCNC(=O)Nc1ccc(CC)cc1,"inconclusive: 14.7 µM [inhibitor, single point]",–
O=C(NC(NC(=S)Nc1ccc(Cl)cc1Cl)C(Cl)(Cl)Cl)c1cccc([N+](=O)[O-])c1 (centres undefined),"inconclusive: 0.329 µM [inhibitor, partial curve, poor fit]",–
Cc1nnc(NC(=O)CCS(=O)(=O)c2ccccc2)s1,–,inactive: 9.54%
O=C(COc1coc(CN2CCc3ccccc32)cc1=O)Nc1ccccc1,–,inactive: 0.806%
CC(C)Cc1nc2oc3c(Cl)ncnc3c2c2c1CCCC2,"inconclusive: 13.1 µM [inhibitor, single point]",–
O=C(NCc1ccc2c(c1)OCO2)c1cc(COc2c(F)cccc2F)on1,"inconclusive: 11.7 µM [inhibitor, partial curve, poor fit]",–
COc1ccc(C)cc1-n1c(SCC(=O)NCC2CCCO2)nc2c([nH]c3ccccc32)c1=O (centres undefined),"inconclusive: 0.233 µM [inhibitor, full curve, poor fit]",–
Oc1c(N=Nc2ccccn2)ccc2ccccc12,active: 8.28 µM,–
COc1ccc(C(CNC(=O)c2ccc(NS(=O)(=O)c3ccc(F)c(C)c3)cc2)N(C)C)cc1 (centres undefined),–,inactive: -24.6%
CCC(=O)Nc1cccc(C2=NOC3(C2)C[C@@H](C(N)=O)N(C(=O)COc2ccc(Cl)cc2)C3)c1 (some centres undefined),–,inactive: 24.1%
CNC(C)C#Cc1ccc2sc3cccc(OC)c3c(=O)c2c1 (centres undefined),"inconclusive: 0.0026 µM [inhibitor, full curve, poor fit]",–
Cc1cc2ccccc2n2c(SCC(=O)N3CCN(C(=O)c4ccco4)CC3)nnc12,"inconclusive: 4.15 µM [inhibitor, partial curve]",–
CC(C)C(=O)N1CCN(c2ccc(NC(=O)c3ccc4c(c3)OCCO4)cc2Cl)CC1,active: 4.65 µM,–
Cn1c(=O)c2c(nc(N3CCc4ccccc4C3)n2C)n(C)c1=O,–,inactive: 50.3%
COC(=O)NC1CCC(CC2CCC(NC(=O)OC)CC2)CC1 (centres undefined),"inconclusive: 0.0083 µM [inhibitor, full curve, poor fit]",–
Cc1ccccc1-n1c(=O)n(CCc2ccccc2)c(=O)c2[nH]cnc21,"inconclusive: 18.5 µM [inhibitor, single point]",–
Cc1ccc(OCC(=O)N/N=C/c2cccnc2)cc1C,–,inactive: 8.56%
CC(C)Oc1ccc(C(CCN)C2CCCCC2)cc1 (centres undefined),"inconclusive: 18.5 µM [inhibitor, single point]",–

# — PubChem BioAssay AID504834 (National Center for Advancing Translational Sciences (NCATS), 2011)
